Measurements from PubChem BioAssay AID504834 (National Center for Advancing Translational Sciences (NCATS), 2011).
Several values for one entry are separate records, joined by “and”; a condition that tells them apart may be missing. Equal entries are not always repeated. The campaign covered roughly 320,000 compounds. About 22,000 (6.9%) were called active. This list was built around the results that the source calls inconclusive (neither active nor inactive); the mix of calls is not that of the screen. Calls follow the shape of the dose curve; as a rule, active = well fitted inhibition curve with a large enough effect; inconclusive = small, poorly fitted or top-dose-only effect, or another doubt; inactive = no such curve, though single readings can be large or run the other way. Where the call is inconclusive, the potency comes from a doubtful curve fit.

assay: Primary qHTS for delayed death inhibitors of the malarial parasite plastid, 96 hour incubation; conditions: P. falciparum luciferase reporter growth; series mostly up to 28.7 µM; activity change, negative = inhibition: at the top concentration
In short: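 Two parasite generations (96 h, 37 C, 5% CO2) of compound exposure in infected erythrocytes (0.05% parasitemia, 2% hematocrit). Luciferase-reporter P. falciparum; decreased luminescence indicates inhibited growth, aimed at apicoplast-acting delayed death.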
% is scaled to controls: 0 for no effect and ±100 for the full control effect; potency is read from the fitted curve at half-maximal effect.

Row | SMILES | Potency | activity change, negative = inhibition
1 | COc1ccccc1N1CCN(c2ncnc3sc(C)c(-c4ccccc4)c23)CC1 | inconclusive: 3.7 µM [inhibitor, partial curve, poor fit] | 
2 | CCCCCc1cc(=O)oc2c(C(CCN3CCCC(C)C3)c3ccc(N(C)C)cc3)c(OC)cc(OC)c12 (stereo unspecified) | active: 8.28 µM | 
3 | CN(C)c1ccc(C=C2C(=O)OC3(CCCC3)OC2=O)cc1 |  | inactive: 26.7%
4 | O=C(Nc1ncnc2sc3c(c12)CCCCC3)c1ccco1 | inconclusive: 13.1 µM [inhibitor, single point] | 
5 | CN(Cc1ccco1)C(=O)Cn1ncc2c([nH]c3ccccc32)c1=O | active: 9.28 µM | 
6 | COC(=O)C1=CCCN(C)C1 | inactive and inconclusive: 16.9 µM [inhibitor, single point] | 
7 | CC1CCCN(C(=O)c2cc(F)c(F)cc2Cl)C1 (stereo unspecified) |  | inactive: 1.44%
8 | COc1cc2c(cc1OC)C(c1ccccc1F)NCC2 (stereo unspecified) | inconclusive: 14.7 µM [inhibitor, single point] | 
9 | CC(C)CN(CCNC(=O)CN1C(=O)CSc2ccc(S(=O)(=O)N3CCOCC3)cc21)CC(C)C | inconclusive: 9.28 µM [inhibitor, single point] | 
10 | Cc1ccsc1/C=N\NC(=O)c1cc(C(C)(C)C)[nH]n1 | inconclusive: 0.0928 µM [inhibitor, full curve, poor fit] | 
11 | COc1ccc(C(=O)Nc2ccc(C)cc2C(=O)c2ccccc2)cc1 | inconclusive: 14.7 µM [inhibitor, single point] | 
12 | Cc1n[nH]c(C)c1S(=O)(=O)N(CC(=O)N1CCc2ccccc21)c1ccc(C(C)C)cc1 |  | inactive: -53.5%
13 | CCOC(=O)c1c(C)[nH]c(C2=NNC(=Nc3ccccc3OC)SC2)c1C | inconclusive: 10.4 µM [inhibitor, partial curve, poor fit] | 
14 | CCN(CCCNC(=O)CCc1nc(-c2ccc(OC)cc2)no1)c1cccc(C)c1 | active: 13.1 µM | 
15 | CC(=O)c1cc(F)c(N2CCCCCC2)cc1C | inconclusive: 0.0415 µM [inhibitor, full curve, poor fit] | 
16 | O=C(O)c1ccc(/C=C2\SC(=S)N(NC(=O)c3ccccc3)C2=O)cc1 | inconclusive: 18.5 µM [inhibitor, single point] | 
17 | Cc1ccc(NC(=O)c2sc3nc4c(c(-c5ccco5)c3c2N)CCC4)cc1 | active: 2.33 µM | 
18 | CN1CCc2c(sc(NC(=O)c3ccc(C(=O)c4ccccc4)cc3)c2C(N)=O)C1 | inconclusive: 10.4 µM [inhibitor, single point] | 
19 | CS(=O)(=O)Nc1ccc(C(=O)Nc2ccc(S(=O)(=O)N3CCCC3)cc2)cc1 |  | inactive: 18.4%
20 | COc1cc(/C=N/NC(=O)CCN2CCN(C(c3ccccc3)c3ccccc3)CC2)ccc1O | active: 11.7 µM | 
21 | COc1ccc(C2CC(=O)c3cnn(-c4nc(C)cc(C)n4)c3C2)cc1OC (stereo unspecified) | inconclusive: 10.4 µM [inhibitor, partial curve, poor fit] | 
22 | CC(C)N1C(=O)S/C(=C/c2ccc(Sc3nc4ccccc4[nH]3)o2)C1=O | inconclusive: 0.465 µM [inhibitor, partial curve, poor fit] | 
23 | COc1ccc(N2CCN(C(=O)c3ccc(-c4nc5ccccc5s4)o3)CC2)cc1 | inconclusive: 13.1 µM [inhibitor, single point] | 
24 | O=C1CCc2cc(NS(=O)(=O)c3ccccc3)cc3c2N1CC3 | inconclusive: 18.5 µM [inhibitor, single point] | 

Row | SMILES | Potency | activity change, negative = inhibition
25 | Cc1ccc(NC(=O)C2CCN(C(=O)[C@@H]3Cc4ccccc4CN3)CC2)c(C)c1 |  | inactive: 29.3%
26 | COc1cc(/C=C/C(=O)O)cc(S(=O)(=O)NCc2ccco2)c1OC | inconclusive: 14.7 µM [inhibitor, single point] | 
27 | CC(=O)NCc1ccc(C(=O)O)cc1 |  | inactive: 38.3%
28 | Cc1ccc(CNc2nc(-c3cccnc3)nc3ccccc23)cc1 | inconclusive: 0.415 µM [inhibitor, full curve] | 
29 | COc1ccc2c3c(cccc13)C(=O)N(O)C2=O |  | inactive: 15.1%
30 | Cc1ccc(C2CC(c3ccc(C)cc3)n3nc(N)nc3N2)cc1 (stereo unspecified) |  | inactive: -6.44%
31 | COc1cc2c(cc1OC)C(=O)N1[C@H]3c4cc(Cl)ccc4OC[C@@H]3[C@H](c3ccccc3)[C@]1(C)C(=O)N2 | active: 9.28 µM | 
32 | COC(=O)c1sccc1NC(=O)Nc1ccc(OC)c(OC)c1 | inconclusive: 20.8 µM [inhibitor, single point] | 
33 | CC(=O)N1CCN(c2ccccc2NC(=O)COc2ccc(Br)cc2)CC1 | active: 4.65 µM | 
34 | COC(=O)C1=C(c2ccc(Cl)c(C(F)(F)F)c2)C[C@@H]2CC[C@H]1N2C(=O)NCC1CC1 | active: 6.57 µM | 
35 | CCOCCCNC(=O)c1c[nH]c2ccc(S(=O)(=O)Nc3cccc(OC)c3)cc2c1=O | inconclusive: 5.22 µM [inhibitor, partial curve] | 
36 | COC(=O)c1ccc(NC(=O)c2snnc2-c2ccccc2)cc1 | inconclusive: 5.22 µM [inhibitor, single point] | 
37 | CC(C)(C)c1ccc(Cn2nnc3c(=O)[nH]c(C4CCCN(C(=O)c5cccs5)C4)nc32)cc1 (stereo unspecified) | active: 4.15 µM | 
38 | COc1ccc(O)c(/C=N/NC(=O)c2ccc(CSc3nc(C)cc(C)n3)cc2)c1 | inconclusive: 10.4 µM [inhibitor, single point] | 
39 | CCn1c(SCC(=O)N2CCCCCC2)nc2ccccc2c1=O | inconclusive: 11.7 µM [inhibitor, partial curve] | 
40 | O=C(CSc1nc2ccccc2c(=O)n1-c1ccc(F)cc1)Nc1ccc(C(=O)O)cc1 |  | inactive: -11.8%
41 | O=C(CN1C2CCC1CC(O)(c1cccnc1)C2)Nc1ccc2c(c1)OCO2 (stereo unspecified) | active: 8.28 µM | 
42 | CN(C[C@H](Cc1ccccc1)N(C[C@H](Cc1cccc2ccccc12)N(CCc1ccccc1)N=O)N=O)N=O | inconclusive: 9.28 µM [inhibitor, partial curve, poor fit] | 
43 | COc1cc(S(=O)(=O)N2CCOCC2)ccc1NC(=O)COC(=O)CC12CC3CC(CC(C3)C1)C2 | active: 8.28 µM | 
44 | CC(C)[C@@]1(NC(=O)[C@H]2CC3c4cccc5[nH]cc(c45)C[C@H]3N(C)C2)O[C@@]2(O)C3CCCN3C(=O)[C@@H](Cc3ccccc3)N2C1=O (stereo partly specified) | active: 8.49 µM | 
45 | COc1ccc(C(=O)O)cc1NC(=S)NC(=O)C(c1ccccc1)c1ccccc1 | inconclusive: 18.5 µM [inhibitor, single point] | 
46 | CCOc1ccc(NC(=O)C2CCCN2C(=O)OCc2ccccc2)cc1 (stereo unspecified) | inconclusive: 9.28 µM [inhibitor, partial curve, poor fit] | 
47 | O=C(Nc1ncn[nH]1)c1cccc(F)c1 | active: 1.47 µM | 
48 | CC(=O)c1ccc(Nc2cc(C)nc3c(C)cc(C)cc23)cc1 | inconclusive: 16.5 µM [inhibitor, single point] | 

From compound 44 to 45, as listed above:
Row | SMILES | Potency | activity change, negative = inhibition
44 | CC(C)[C@@]1(NC(=O)[C@H]2CC3c4cccc5[nH]cc(c45)C[C@H]3N(C)C2)O[C@@]2(O)C3CCCN3C(=O)[C@@H](Cc3ccccc3)N2C1=O (stereo partly specified) | active: 8.49 µM | 
45 | COc1ccc(C(=O)O)cc1NC(=S)NC(=O)C(c1ccccc1)c1ccccc1 | inconclusive: 18.5 µM [inhibitor, single point] | 

Part of the list above in order of SMILES length, descending.
Row | SMILES | Potency | activity change, negative = inhibition
34 | COC(=O)C1=C(c2ccc(Cl)c(C(F)(F)F)c2)C[C@@H]2CC[C@H]1N2C(=O)NCC1CC1 | active: 6.57 µM | 
32 | COC(=O)c1sccc1NC(=O)Nc1ccc(OC)c(OC)c1 | inconclusive: 20.8 µM [inhibitor, single point] | 
27 | CC(=O)NCc1ccc(C(=O)O)cc1 |  | inactive: 38.3%

Further entries:

Row | SMILES | Potency | activity change, negative = inhibition
49 | COc1ccc(OC)c(NC(=O)CSc2ccc(-c3ccco3)nn2)c1 | inconclusive: 9.28 µM [inhibitor, single point] | 
50 | CCOc1ccc(CCNS(=O)(=O)c2cnc[nH]2)cc1OCC | inconclusive: 11.7 µM [inhibitor, single point] | 
51 | COc1ccc(CC(NC(C)=O)C(=O)NC2CCN(c3nnnn3-c3ccccc3)CC2)cc1OC (stereo unspecified) | inconclusive: 3.7 µM [inhibitor, partial curve] | 
52 | CCOC(=O)C1CCN(c2nc3ccccc3nc2C(C#N)C(=O)NCCc2ccccc2)CC1 (stereo unspecified) | active: 9.28 µM | 
53 | Nn1cc(-c2ccccc2)nc1SCC(=O)N1CCN(S(=O)(=O)c2ccc(Cl)cc2)CC1 | inconclusive: 11.7 µM [inhibitor, partial curve] | 
54 | CC(C)NC[C@H]1CCc2cc(CO)c([N+](=O)[O-])cc2N1 |  | inactive: -12.3% [at 12.8 µM]
55 | Cc1c(C)c2ccc(OCC(=O)Nc3ccc(S(N)(=O)=O)cc3)c(C)c2oc1=O | inconclusive: 2.33 µM [inhibitor, full curve, poor fit] | 
56 | Cc1cccc(NC(=O)NNC(=O)c2nn(C)cc2Br)c1 |  | inactive: -2.3%
57 | O=C(NC(=S)Nc1ccc(Br)c(Cl)c1)C1CC1 | inconclusive: 16.5 µM [inhibitor, single point] | 
58 | NC(=O)CSc1nnc(CNc2ccc(F)cc2)n1CC1CCCO1 (stereo unspecified) |  | inactive: 5.79% [at 5.75 µM]
59 | CCC(C(=O)O)n1c2ccccc2c2cn[nH]c(=O)c21 (stereo unspecified) |  | inactive: 14.2%
60 | OCCNc1nc2nonc2nc1NCCO |  | inactive: 32.3%
61 | O=C(CNS(=O)(=O)c1ccc([N+](=O)[O-])cc1)N/N=C/c1ccc(O)cc1O |  | inactive: -29.1%
62 | CCCCCCCSc1nnc(-c2ccccc2N)c(=O)[nH]1 | inconclusive: 16.5 µM [inhibitor, single point] | 
63 | CCn1c(SCC(=O)NC(C)(C)C)nnc1-c1ccoc1C | inconclusive: 9.28 µM [inhibitor, partial curve] | 
64 | O=[N+]([O-])c1ccc(-c2c(-c3ccccc3)ncc3cc(F)ccc23)cc1 | active: 5.22 µM | 
65 | Clc1ccc(CNc2ncccn2)cc1 |  | inactive: 67.9%
66 | COc1ccc(C(=O)NCc2ccccc2CN2CCCC2)cc1S(=O)(=O)N1CCOCC1 | inconclusive: 18.5 µM [inhibitor, single point] | 
67 | CCCN(CCC)c1nc(C#N)nc(N(CCC)CCC)n1 | active: 8.28 µM | 
68 | O=C(Cn1ncc2c3ccccc3n(Cc3ccccc3)c2c1=O)N1CCN(c2ccccn2)CC1 |  | inactive: 15.6%
69 | O=C(c1ccc2c(c1)OCO2)N1CCN(c2cccc(C(F)(F)F)c2)CC1 | inconclusive: 3.7 µM [inhibitor, full curve, poor fit] | 
70 | Cc1ccccc1NC(=O)C[n+]1cc(-c2ccccc2)n2c1CCC2 | active: 5.86 µM | 
71 | CCCCOc1ccc(CN=C(N)N)cc1Cl | inconclusive: 7.38 µM [inhibitor, partial curve] | 
